# Library screening results

Sequences of proteins named here, by UniProt entry; tags and fusion partners are left off.
UniProt E9BF75, entry or part of it: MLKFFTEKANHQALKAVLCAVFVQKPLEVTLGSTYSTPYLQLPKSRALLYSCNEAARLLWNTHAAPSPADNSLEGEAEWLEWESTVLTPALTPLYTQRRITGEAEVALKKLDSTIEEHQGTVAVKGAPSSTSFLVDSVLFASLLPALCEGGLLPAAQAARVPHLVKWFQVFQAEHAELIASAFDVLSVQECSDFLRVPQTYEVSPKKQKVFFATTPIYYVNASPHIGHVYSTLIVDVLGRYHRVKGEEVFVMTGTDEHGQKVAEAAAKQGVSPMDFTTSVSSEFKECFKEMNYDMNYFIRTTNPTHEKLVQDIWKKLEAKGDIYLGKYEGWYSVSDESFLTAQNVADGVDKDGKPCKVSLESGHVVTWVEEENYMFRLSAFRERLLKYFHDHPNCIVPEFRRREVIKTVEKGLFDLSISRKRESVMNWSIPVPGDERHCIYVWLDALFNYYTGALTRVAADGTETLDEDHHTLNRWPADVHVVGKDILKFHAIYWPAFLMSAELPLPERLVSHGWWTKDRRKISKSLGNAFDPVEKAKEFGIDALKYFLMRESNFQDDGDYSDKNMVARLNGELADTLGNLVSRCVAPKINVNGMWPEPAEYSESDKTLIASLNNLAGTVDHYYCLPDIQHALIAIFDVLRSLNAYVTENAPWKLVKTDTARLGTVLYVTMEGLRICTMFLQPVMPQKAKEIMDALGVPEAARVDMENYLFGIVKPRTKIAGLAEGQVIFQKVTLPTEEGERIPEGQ

The values are deposited in ChEMBL (CHEMBL3988442, “University of Dundee, Small-Polar-MMV Screening Library” (2021)).

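Primary screen of methionyl-tRNA synthetase; the read-out is not stated. Target: Methionyl-tRNA synthetase (putative), Leishmania donovani (UniProt E9BF75). The test concentration is not given. Values are per cent inhibition. Size under these conditions: about 68,000 compounds, about 24 of them at 50% or above in at least one test.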

Results are percentages, as filed.
The record does not define 0% and 100%; most values in the screen are far below 50% and negative numbers occur (in some assays of this library far below -100).
This is an unselected part of the compounds tested.

For c1ccc(CN2CCCn3nnc(COc4ccccn4)c3C2)nc1 the result was 13.59%.
For COCC1CN(C(=O)Cc2ccccn2)Cc2ncnn2C1 (configuration not stated) the result was 8.065%.
For CCC(=O)N1CCCN(C(=O)C2SCCc3sccc32)CC1 (configuration not stated) the result was -3.846%.
For CC(C)Sc1nnnn1C1CCCC1 the result was 15.25%.
For Cc1ccc(C(=O)N2CCc3c(CNS(C)(=O)=O)cncc3C2)o1 the result was 17.15%.
For CC(C)C(N)CNS(=O)(=O)Cc1cccc2cccnc12 (configuration not stated) the result was 20.44%.
For Cc1cccc(CN2CC[C@H]3[C@H]2CCN3Cc2cnn(C)c2)n1 the result was 1.684%.
For Cc1cc(CN(C)Cc2ncc(C(C)(C)C)o2)no1 the result was 12.32%.
For O=C(C1CCOC1)N1CCN(CCn2cccn2)c2ncccc2C1 (configuration not stated) the result was 12.92%.
For Cc1nnc(C2CCN(C(=O)c3ccsc3)CC2)s1 the result was 10.79%.
For Cn1cccc1CNC(=O)CCCc1nnc2ccccn12 the result was 10.37%.
For Cc1cc(C2CCCN2C(=O)c2csc(-c3cnn(C)c3)n2)on1 (configuration not stated) the result was 8.947%.
For Cc1cccc(NC2CCN(C(=O)Nc3ccncc3)CC2)n1 the result was 5.556%.
For Cc1cc(C)n(CC2CCCN2C(=O)c2c(C)noc2C)n1 (configuration not stated) the result was 2.761%.
For CN(Cc1ccccn1)C(CO)c1cccc(Br)c1 (configuration not stated) the result was 8.58%.
For CNC(=O)CN(C)C(=O)c1cc(Cl)c(I)cc1OC the result was 12.83%.
For O=C(c1cnc2[nH]c(=O)[nH]c(=O)c2c1)N1CCCC1C1CCCC1 (configuration not stated) the result was 9.192%.
For COCCCN1CCCC12CCN(c1ncccn1)CC2 the result was 14.89%.
For CCn1c(N)nc2cc(C(=O)N3CCN(c4ccncc4)CC3)cnc21 the result was 8.437%.
For COCC(=O)N1C[C@H]2CNC[C@@]2(C(=O)NCc2c(C)noc2C)C1 the result was 12.64%.
For Cc1ccc(C2CSCCN2C(=O)c2ccoc2C)o1 (configuration not stated) the result was 10.31%.
For CC(C)[C@H]1CN(C2Cc3ccccc3C2)C[C@@H]1NS(C)(=O)=O the result was 6.959%.
For Cn1cc(CN2CCCC(n3c(=O)oc4ccccc43)C2)cn1 (configuration not stated) the result was 13.35%.
For Cn1cc(CN2CCC(CCC(=O)NCc3ccc(F)cc3)CC2)cn1 the result was 2.835%.
For Cc1cccc(CN2CCc3ncnc(C)c3CC2)n1 the result was 8.5%.
For Cc1ccc(CN(C(=O)NCCNC(=O)c2cccnc2)C(C)C)o1 the result was 6.969%.
For O=C(Nc1ccccn1)C1CCN(Cc2cc3c(cc2O)OCO3)CC1 the result was 17.12%.
For c1ccc(-c2nc(CN3CCCC3Cn3cccn3)no2)cc1 (configuration not stated) the result was 11.11%.
For O=C(c1cnccn1)N1CCC(CN2CCOCC2)CC1 the result was 11.04%.
For CCOc1ccc(Cl)c(C(=O)NCCC(=O)Nc2ccccn2)n1 the result was 18.7%.
For C=C(C)COc1cccc(C(=O)N2CCC3(CC2)CN(C)CCN3C)c1 the result was 14.99%.
For O=C(c1ccc(=O)[nH]c1)N1CCc2c(nc(-c3cccnc3)[nH]c2=O)C1 the result was 7.436%.
For CCc1[nH]ncc1C(=O)N1CCN(c2nc(C)cc(OC)n2)CC1 the result was 15.04%.
For CN(C)C(=O)CCCS(=O)(=O)Cc1cc(Cl)c2c(c1)OCCO2 the result was 7.754%.
For Cc1cc(Br)ccc1C(=O)NCCN1CCCCCC1 the result was 18.08%.
For Cc1ccc(-c2nnc(CCC(=O)N3CCCC3c3ccc[nH]3)o2)cc1 (configuration not stated) the result was 13.45%.
For COCCC(Cc1cccc(Br)c1)C(N)=O (configuration not stated) the result was 17.16%.
For Cc1cc(C)n(CC(C)CNC(=O)N(C)Cc2ccco2)n1 (configuration not stated) the result was 10.14%.
For Cn1cc(-c2cnc(N3CCCC3)nc2)cc1C(=O)O the result was 15.24%.
For CN1CCN(C2CCN(Cc3ccc(Cl)cc3)CC2)C1=O the result was 2.375%.
For Cn1nc(CN2CCCC2)c2c1CN(C(=O)c1ccc[nH]1)CC2 the result was 3.136%.
For CCC(Nc1cccc(Oc2ccc(C#N)cc2)c1)C(N)=O (configuration not stated) the result was 10.77%.
For CC(C)c1ccc(OCC(=O)NS(=O)(=O)c2cccnc2)cc1 the result was 10%.
For CS(=O)(=O)N1CCC(Oc2ccc(C(=O)NC3CCCC3)cc2Cl)CC1 the result was 12.36%.

For reference, 5 entries once more:

{"compound": "COCCCN1CCCC12CCN(c1ncccn1)CC2", "Inhibition": 14.89}
{"compound": "CC(C)Sc1nnnn1C1CCCC1", "Inhibition": 15.25}
{"compound": "Cc1cc(C2CCCN2C(=O)c2csc(-c3cnn(C)c3)n2)on1", "stereo": "configuration not stated", "Inhibition": 8.947}
{"compound": "O=C(Nc1ccccn1)C1CCN(Cc2cc3c(cc2O)OCO3)CC1", "Inhibition": 17.12}
{"compound": "Cn1cc(CN2CCC(CCC(=O)NCc3ccc(F)cc3)CC2)cn1", "Inhibition": 2.835}